The values below come from PMC12016516.

The chains behind the UniProt entries cited, without tags or fusion partners. Where a name states a change or a piece, a line headed by the entry shows the natural chain unless it says otherwise.
UniProt Q5JE61: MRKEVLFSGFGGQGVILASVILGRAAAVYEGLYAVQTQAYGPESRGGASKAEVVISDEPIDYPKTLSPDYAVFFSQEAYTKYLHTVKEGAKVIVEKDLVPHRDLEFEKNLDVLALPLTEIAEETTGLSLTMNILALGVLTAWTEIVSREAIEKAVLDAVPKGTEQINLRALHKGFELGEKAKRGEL
UniProt Q5JIK0: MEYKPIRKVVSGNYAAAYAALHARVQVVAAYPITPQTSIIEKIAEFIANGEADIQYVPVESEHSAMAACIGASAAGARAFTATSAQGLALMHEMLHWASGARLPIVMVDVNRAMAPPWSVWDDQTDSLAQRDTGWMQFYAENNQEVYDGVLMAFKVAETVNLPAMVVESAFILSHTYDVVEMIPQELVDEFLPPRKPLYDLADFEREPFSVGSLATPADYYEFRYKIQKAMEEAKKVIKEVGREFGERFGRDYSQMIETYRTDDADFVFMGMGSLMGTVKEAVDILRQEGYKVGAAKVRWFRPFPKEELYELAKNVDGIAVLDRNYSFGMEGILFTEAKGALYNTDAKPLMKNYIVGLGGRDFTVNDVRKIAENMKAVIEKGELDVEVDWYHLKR
UniProt Q5JE28: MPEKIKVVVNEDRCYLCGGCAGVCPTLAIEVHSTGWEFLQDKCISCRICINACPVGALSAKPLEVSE
UniProt Q5JE58: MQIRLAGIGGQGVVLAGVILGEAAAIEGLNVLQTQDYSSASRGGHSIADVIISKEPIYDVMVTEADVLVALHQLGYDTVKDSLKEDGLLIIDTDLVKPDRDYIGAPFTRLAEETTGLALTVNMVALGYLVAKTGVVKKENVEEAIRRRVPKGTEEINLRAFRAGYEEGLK

For assay [1], the target named is T1, 2-Oxoisovalerate-ferredoxin oxidoreductase, β subunit (Thermococcus kodakarensis) (UniProt Q5JIJ9).
T1 sequence: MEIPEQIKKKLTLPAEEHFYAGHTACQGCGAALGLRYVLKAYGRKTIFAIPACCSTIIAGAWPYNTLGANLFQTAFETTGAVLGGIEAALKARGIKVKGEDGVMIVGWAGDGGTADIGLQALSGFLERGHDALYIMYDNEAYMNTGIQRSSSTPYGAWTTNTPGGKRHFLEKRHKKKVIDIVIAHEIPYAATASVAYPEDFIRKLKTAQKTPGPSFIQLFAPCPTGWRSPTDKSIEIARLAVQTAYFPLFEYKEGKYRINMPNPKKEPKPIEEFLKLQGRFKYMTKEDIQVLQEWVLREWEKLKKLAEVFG
Put plainly: affinity purification with mass spectrometry; HA- and His6-tagged bait made from its native locus, captured from clarified T. kodakarensis lysate on a Ni2+-charged chelating column (buffer A: 10 mM Tris HCl pH 8.0, 500 mM NaCl, 10% glycerol), eluted with an imidazole gradient; pooled fractions identified by MuDPIT LC-MS/MS and compared with the parental strain TS559 (P < 0.05, log2 fold change ≥ 2); cells grown at 85°C with (+S˚) or without (–S˚) elemental sulfur.

The target in assay [2] is T2, 2-Oxoisovalerate-ferredoxin oxidoreductase, γ subunit (Thermococcus kodakarensis) (UniProt Q5JIK2).
T2 sequence: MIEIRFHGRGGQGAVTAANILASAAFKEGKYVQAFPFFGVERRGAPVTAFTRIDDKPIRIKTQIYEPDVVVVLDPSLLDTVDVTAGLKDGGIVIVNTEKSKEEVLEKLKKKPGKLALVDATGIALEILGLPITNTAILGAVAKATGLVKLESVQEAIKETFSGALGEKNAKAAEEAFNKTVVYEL
The description is as above.

The target in assay [3] is T3, 2-Oxoisovalerate-ferredoxin oxidoreductase, δ subunit (Thermococcus kodakarensis) (UniProt Q5JIK1).
T3 sequence: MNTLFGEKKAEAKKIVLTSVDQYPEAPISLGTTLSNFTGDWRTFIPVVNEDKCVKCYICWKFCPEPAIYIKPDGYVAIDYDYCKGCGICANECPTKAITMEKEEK
The assay is described as above.

For assay [4], the target named is T4, Geranylgeranyl reductase (Thermococcus kodakarensis) (UniProt Q5JE27).
T4 sequence: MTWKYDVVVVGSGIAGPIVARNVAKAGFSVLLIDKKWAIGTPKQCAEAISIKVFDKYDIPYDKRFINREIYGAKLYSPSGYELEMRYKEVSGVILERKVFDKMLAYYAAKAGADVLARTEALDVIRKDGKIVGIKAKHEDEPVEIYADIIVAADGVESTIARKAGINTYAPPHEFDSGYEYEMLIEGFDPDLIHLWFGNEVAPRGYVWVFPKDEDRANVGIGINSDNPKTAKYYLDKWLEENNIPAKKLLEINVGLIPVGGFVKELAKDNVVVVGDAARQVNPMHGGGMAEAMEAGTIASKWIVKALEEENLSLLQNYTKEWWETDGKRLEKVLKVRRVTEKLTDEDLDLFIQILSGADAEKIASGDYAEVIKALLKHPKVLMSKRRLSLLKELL
The description is as above.

Assay [5] has as its target 2-Oxoacid:ferredoxin oxidoreductase, γ1 subunit (Thermococcus kodakarensis) (UniProt Q5JE61). As to the kind of experiment: affinity purification with mass spectrometry; as a1, only the purifications from cells grown with elemental sulfur (+S˚).
Assay [6] has the same target. As to the kind of experiment: affinity purification with mass spectrometry; HA- and His6-tagged bait made from its native locus, captured from clarified T. kodakarensis lysate on a Ni2+-charged chelating column (buffer A: 10 mM Tris HCl pH 8.0, 500 mM NaCl, 10% glycerol), eluted with an imidazole gradient; pooled fractions identified by MuDPIT LC-MS/MS and compared with the parental strain TS559 (P < 0.05, log2 fold change ≥ 2); cells grown at 85°C with (+S˚) or without (–S˚) elemental sulfur.

No constants are given. Whether binding was seen depends on the method and setting. Binding seen in cells or lysates may run through a third protein. Here binding means that the protein was enriched with, or labelled near, the bait; the list need not be complete. For part of these data: A no says only that the protein was not detected with the bait.

As to “2-Oxoisovalerate-ferredoxin oxidoreductase, α subunit (from UniProt Q5JIK0)”, the binding result in assay [1], in assay [2] and in assay [3] was “binds” in each case.
As to Fd2 (TK1087) (from UniProt Q5JE28), in assay [4], the binding entry is “binds”.
With OGORγ2 (TK1126) (from UniProt Q5JE58), the figures for the binding entry in assay [5] and in assay [6] were “no binding (only cells grown with S˚)” and “binds”, respectively.
